# Laboratory results reported in patent publication US20070142401A1, “Indolyl-pyrroledione derivatives for the treatment of neurological and vascular disorders related to beta-amyloid generation and/or aggregation” (NOVARTIS AG, priority 2003, published 2007).
# The name of at least one read-out is uncertain.
# Tested on: PKA
# Assay: cell-free enzyme assay PKA
# Format: biochemical
smiles,measurement,value
"CN1CCN(c2cc(C3=C(c4c[nH]c5ccccc45)C(=O)NC3=O)c(Cl)c(C(F)(F)F)c2)CC1 [Example 2, 3-[2-Chloro-5-(4-methyl-piperazin-1-yl)-3-trifluoromethyl-phenyl]-4-(1H-indol-3-yl)-pyrrole-2,5-dione]",IC50,< 10 µM
